Results as given in PubChem BioAssay AID588590 (National Center for Advancing Translational Sciences (NCATS), 2011).
Hit rate of the full screen: of about 390,000 compounds, about 4,000 (1%) were called active. Inconclusive results, whose numbers are uncertain, are shown with a selection of clear calls. Calls come from the whole dose curve; as a rule, active = well fitted inhibition curve with a large enough effect; inconclusive = small, poorly fitted or top-dose-only effect, or another doubt; inactive = no such curve, though single readings can be large or run the other way. Potencies of inconclusive entries are doubtful fits and often do not repeat.
Potency is the fitted concentration of half-maximal effect.

Protein sequences, listed by entry. Tags and fused reporters are not part of them. Lines headed by an entry give the natural chain unless they say otherwise; changes in a name come on top.
UniProt Q9UNA4: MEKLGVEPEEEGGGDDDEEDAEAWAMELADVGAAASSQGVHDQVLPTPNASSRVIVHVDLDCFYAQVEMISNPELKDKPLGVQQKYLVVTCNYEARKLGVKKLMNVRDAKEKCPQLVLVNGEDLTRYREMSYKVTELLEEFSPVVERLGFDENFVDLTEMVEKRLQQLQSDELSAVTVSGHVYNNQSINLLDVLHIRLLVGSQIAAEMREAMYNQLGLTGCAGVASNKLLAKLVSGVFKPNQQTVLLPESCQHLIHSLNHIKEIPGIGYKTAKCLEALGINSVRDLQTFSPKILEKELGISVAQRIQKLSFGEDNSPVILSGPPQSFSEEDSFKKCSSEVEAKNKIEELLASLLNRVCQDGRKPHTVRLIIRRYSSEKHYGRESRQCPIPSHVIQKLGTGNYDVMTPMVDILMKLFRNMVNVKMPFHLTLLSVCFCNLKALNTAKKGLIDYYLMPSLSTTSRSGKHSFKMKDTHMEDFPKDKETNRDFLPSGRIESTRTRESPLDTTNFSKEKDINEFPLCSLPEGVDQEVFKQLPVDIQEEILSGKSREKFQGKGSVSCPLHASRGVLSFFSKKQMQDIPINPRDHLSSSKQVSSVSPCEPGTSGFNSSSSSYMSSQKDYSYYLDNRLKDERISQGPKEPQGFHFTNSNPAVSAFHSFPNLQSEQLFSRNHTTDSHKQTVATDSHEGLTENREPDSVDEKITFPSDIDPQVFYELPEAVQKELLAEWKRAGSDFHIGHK

What follows are compounds tested against DNA polymerase iota (Homo sapiens) (UniProt Q9UNA4) (assay: qHTS for Inhibitors of Polymerase Iota). Details: Pol iota fluorescent replication assay, 10 min; series mostly up to 115 µM; activity, negative = inhibition: at the top concentration.
In short: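 Pol iota at 10 nM preincubated 15 min with compounds at room temperature; reaction started with fluorescent substrate, 50 nM final. Fluorescence read kinetically at 0 and 10 min; buffer-only wells as negative control.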
In the case of `C[C@@H]1NC(=O)[C@H](CCC(N)=O)NC(=O)c2cc([N+](=O)[O-])cc(I)c2NCCC[C@@H](C(N)=O)NC1=O`, the Potency is reported as inconclusive: 12.6 µM [inhibitor, partial curve, poor fit]. `COc1ccc(CCC(=O)Nc2c(C)n(C)n(-c3ccccc3)c2=O)cc1` was tested, and the Potency was inconclusive: 25.1 µM [inhibitor, partial curve, poor fit]. For `COc1cc2c(cc1OC)CN(Cc1cc(=O)n3cc(C)ccc3n1)CC2`, the “activity, negative = inhibition” value was inactive: 30.7%. `C=C(C)C(=O)Nc1cccc(C2=NOC3(C2)C[C@H](C(N)=O)N(C(=O)c2ccccc2)C3)c1` (stereo partly specified) was tested, and the Potency was active: 50.1 µM. In the case of `O=C(c1csc2c1CCCC2)N1CCN(c2ccc(F)cc2)CC1`, the Potency is reported as inconclusive: 44.7 µM [inhibitor, partial curve, poor fit]. `Cn1c2c(c(=O)n(C)c1=O)C(c1ccc(Br)cc1)Nc1ccccc1O2` (stereo unspecified) was tested, and the Potency was inconclusive: 70.8 µM [inhibitor, single point]. For `CCOc1ccc(/C=N/NC(=O)CSc2n[nH]c(=O)[nH]c2=O)cc1OC`, the Potency was inconclusive: 100 µM [inhibitor, partial curve, poor fit]. For `COc1ccc(N(C(=O)Cn2cnc3ccccc32)C(C(=O)NC2CCCCC2)c2ccccc2)cc1` (stereo unspecified), the Potency was inconclusive: 31.6 µM [inhibitor, partial curve]. With `COC(=O)C1C(=O)C(C(=O)/C=C/c2ccccc2)C(=O)CC1(C)C` (stereo unspecified) the Potency was inconclusive: 56.2 µM [inhibitor, partial curve, poor fit]. With `C=CCNc1nc(C(=O)OCC(=O)c2ccc(Cl)cc2)cs1` the Potency was inconclusive: 15.8 µM [inhibitor, full curve, poor fit]. In the case of `O=C(c1cc(-c2ccc(Cl)cc2Cl)on1)N1CCCCCC1`, the Potency is reported as inconclusive: 100 µM [inhibitor, partial curve]. With `Cc1cc(C)nc(SCC(=O)N(C)CC(=O)Nc2c(Cl)cccc2Cl)n1` the Potency was inconclusive: 89.1 µM [inhibitor, single point]. In the case of `CCCSc1ccc([C@@H]2[C@H]3C(=O)N(CC)C(=O)[C@H]3[C@]3(C(=O)OC)CCCCN23)cc1OC`, the Potency is reported as inconclusive: 22.4 µM [inhibitor, partial curve, poor fit]. For `N#Cc1cc2c(=O)n3ccccc3nc2n(-c2ccc(Cl)cc2)c1=O`, the Potency was inconclusive: 50.1 µM [inhibitor, partial curve]. For `Cc1ccc(-c2nnc(CSc3nc(C)nc4sc(C)c(C)c34)o2)cc1`, the Potency was inconclusive: 89.1 µM [inhibitor, single point]. `CN(CC(=O)Nc1ccccc1C(F)(F)F)C(=O)c1ccc2c(=O)n3c(nc2c1)CCC3` was tested, and the Potency was inconclusive: 44.7 µM [inhibitor, partial curve, poor fit]. For `Cn1c(=O)c2c(nc(SCC(=O)NCc3ccc4c(c3)OCO4)n2Cc2ccc(Cl)cc2)n(C)c1=O`, the Potency was inconclusive: 56.2 µM [inhibitor, partial curve, poor fit]. With `COc1cc(/C=C(\C#N)C(=O)Nc2ccc3c(c2)OCCO3)ccc1O` the “activity, negative = inhibition” value was inactive: 20.3%. In the case of `CC1CN(S(=O)(=O)c2cccc(C(=O)NCc3ccco3)c2)CC(C)O1` (stereo unspecified), the Potency is reported as inconclusive: 89.1 µM [inhibitor, single point]. `CCC(COC(=O)c1ccccc1)Oc1cc(NCc2ccccc2)c2ncn(C(C)C)c2c1` (stereo unspecified) was tested, and the Potency was inconclusive: 3.55 µM [inhibitor, full curve, poor fit]. `CNC(=O)C1(C(F)(F)F)C/C(=C\Cc2ccccc2)CCCO1` (stereo unspecified) was tested, and the Potency was inconclusive: 100 µM [inhibitor, single point]. For `CCCCN1Cc2c(nc3cc(-c4ccco4)[nH]n3c2=O)C1=O`, the Potency was inconclusive: 17.8 µM [inhibitor, full curve]. `COc1cc(/C=C/C(O)=C/C(=O)/C=C/c2ccc(O)cc2)ccc1O` was tested, and the Potency was inconclusive: 17.8 µM [inhibitor, full curve, poor fit]. For `O=C(CN1C(=O)C(=O)N(Cc2ccco2)C1=O)Nc1ccccc1`, the Potency was inconclusive: 28.2 µM [inhibitor, partial curve, poor fit]. With `O=C(Nc1ccccn1)c1ccc2ccccc2n1` the Potency was inconclusive: 2.82 µM [inhibitor, full curve, poor fit]. `CC(C)Oc1ccc(CNC(=O)C2CCN(C(=O)c3sccc3-n3cccc3)CC2)cc1` was tested, and the Potency was inconclusive: 100 µM [inhibitor, partial curve, poor fit]. For `Cc1cccc(C(=O)N2CCc3cc(CNC(=O)CCc4ccccc4)ccc32)c1`, the “activity, negative = inhibition” value was inactive: 3.68%. `CN(C)S(=O)(=O)c1ccc2nc(NC(=O)c3cccnc3)sc2c1` was tested, and the Potency was inconclusive: 15.8 µM [inhibitor, full curve, poor fit]. For `O=c1[nH]cccc1-c1nc2ccccc2n1Cc1cccc(Cl)c1`, the Potency was inconclusive: 12.6 µM [inhibitor, full curve, poor fit]. `C#Cc1ccc(C(=O)Nc2cc(C(N)=O)ccc2N2CCOCC2)cc1` was tested, and the Potency was inconclusive: 39.8 µM [inhibitor, partial curve]. With `Cc1cn2c(=O)cc(COc3ccc(NC(=O)c4cccc(F)c4)cc3)nc2s1` the “activity, negative = inhibition” value was inactive: 10.3%. With `CCCC(=O)Nc1ccc(C(=O)Nc2ccc([N+](=O)[O-])cc2OC)cc1` the Potency was inconclusive: 89.1 µM [inhibitor, single point]. For `O=C(COC(=O)c1ccc([N+](=O)[O-])o1)Nc1ncc(Cl)cc1Cl`, the Potency was inconclusive: 17.8 µM [inhibitor, full curve]. For `O=C(NCc1cccc(Br)c1)c1cc(-c2ccccc2)nn1CC1CC(c2cccc([N+](=O)[O-])c2)=NO1` (stereo unspecified), the Potency was inconclusive: 25.1 µM [inhibitor, partial curve, poor fit]. In the case of `c1ccc(C[C@H]2CN=C(Nc3ccccc3)N2CC2CCCCC2)cc1`, the Potency is reported as inconclusive: 3.98 µM [inhibitor, full curve, poor fit]. In the case of `O=C(Nc1cccc(Cl)c1)c1c(NC(=O)C(F)(F)F)sc2c1CCCC2`, the Potency is reported as inconclusive: 79.4 µM [inhibitor, partial curve]. With `CC(=O)Nc1cccc(NC(=O)Cn2cnc3c2c(=O)n(C)c(=O)n3C)c1` the “activity, negative = inhibition” value was inactive: 2.65%. With `COc1ccc(Br)cc1/C=N/NC(=O)CN1CCN(Cc2ccccc2)CC1` the Potency was inconclusive: 70.8 µM [inhibitor, single point]. `C[C@]12CCC(=O)C=C1CC[C@@H]1[C@@H]2[C@@H](O)C[C@@]2(C)[C@H]1CC[C@]2(O)C(=O)COC(=O)CCC(=O)O` was tested, and the Potency was inconclusive: 3.98 µM [inhibitor, full curve, poor fit]. With `Cc1ccc(NC(=O)CCNS(=O)(=O)c2ccc3[nH]c(=O)oc3c2)cc1F` the Potency was inconclusive: 63.1 µM [inhibitor, single point]. With `O=C(COC(=O)c1nc(Cl)ccc1Cl)c1ccc[nH]1` the Potency was inconclusive: 50.1 µM [inhibitor, partial curve]. `CC1=Nc2ccccc2N=C(NC(=O)c2ccccc2)C1c1ccccc1` (stereo unspecified) was tested, and the “activity, negative = inhibition” value was inactive: 31.4%. In the case of `CC(C)(C)NC[C@H](O)COc1nsnc1N1CCOCC1`, the Potency is reported as inconclusive: 79.4 µM [inhibitor, partial curve]. `O=C(CSC1=Nc2ccccc2C2=NC(CC(=O)NCc3ccco3)C(=O)N12)NCc1ccco1` (stereo unspecified) was tested, and the Potency was inconclusive: 17.8 µM [inhibitor, full curve, poor fit]. In the case of `COc1ccc(-c2nc(C#N)c(NCCCN(C)C)o2)cc1OC`, the Potency is reported as inconclusive: 14.1 µM [inhibitor, full curve, poor fit]. In the case of `COC(=O)c1ccn(CSc2c(F)c(F)cc(F)c2F)n1`, the Potency is reported as inconclusive: 63.1 µM [inhibitor, single point]. In the case of `COc1ccc(CCNC(=O)C2CC3Cn4c(nc5ccccc54)C3N2c2ccccc2)cc1` (stereo unspecified), the Potency is reported as inconclusive: 15.8 µM [inhibitor, full curve, poor fit]. For `O=C(CCC(=O)Nc1ccc(Cl)cc1Cl)N/N=C/c1ccc([N+](=O)[O-])o1`, the Potency was active: 56.2 µM. `Cc1ccc(S(=O)(=O)CCC(=O)OCC(=O)N(C)C2CCS(=O)(=O)C2)cc1` (stereo unspecified) was tested, and the “activity, negative = inhibition” value was inactive: 22.2%. `CN(C)c1ccc(C=O)c(O)c1` was tested, and the Potency was active: 50.1 µM. With `COc1ccccc1-c1nnc(Nc2nc3c(OC)cccc3s2)o1` the Potency was inconclusive: 79.4 µM [inhibitor, single point]. In the case of `CCC(C)NC(=O)c1cc2c(Cl)nc3ccc(C)cc3c2s1` (stereo unspecified), the “activity, negative = inhibition” value is reported as inactive: 8.95%. In the case of `O=C(NCCCN1CCOCC1)c1onc(CSc2ccc(F)c(F)c2)c1C(=O)NCCCN1CCOCC1`, the Potency is reported as inconclusive: 35.5 µM [inhibitor, partial curve, poor fit]. For `CC1(C)C(=O)N(CC(=O)Nc2ccc(Cl)cc2)c2ccccc21`, the “activity, negative = inhibition” value was inactive: 14.3%. With `CCc1ccccc1NC(=O)c1cnccn1` the Potency was inconclusive: 89.1 µM [inhibitor, single point]. In the case of `O=C(CN1C(=O)NC2(CCCC2)C1=O)Nc1ccc(Cl)cc1C(F)(F)F`, the “activity, negative = inhibition” value is reported as inactive: 10.8%. For `O=C(CSc1nc2c(sc3ccccc32)c(=O)n1-c1ccccc1)NCc1ccco1`, the Potency was inconclusive: 50.1 µM [inhibitor, partial curve, poor fit]. For `COC(=O)c1ccc(S(=O)(=O)N2CCCN(Cc3cccc(Br)c3F)CC2)n1C`, the Potency was inconclusive: 28.2 µM [inhibitor, partial curve, poor fit]. With `CCOC(=O)c1cc2c(=O)c3ccccc3oc2nc1C` the Potency was inconclusive: 56.2 µM [inhibitor, single point]. In the case of `COc1ccc(OCC(=O)Nc2nnc(S(=O)(=O)N3CCCCCC3)s2)cc1`, the Potency is reported as inconclusive: 22.4 µM [inhibitor, full curve]. For `O=C(CSc1nccn1Cc1ccco1)Nc1cccc(F)c1`, the Potency was inconclusive: 63.1 µM [inhibitor, partial curve, poor fit].
